Data as given in PubChem BioAssay AID1508588 (Peter MacCallum Cancer Centre, 2020)

Test: 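Which gene losses make BRAF-mutant melanoma cells more responsive to vemurafenib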 (primary screen)
Cells: human WM266.4 melanoma cells (BRAF V600 mutant)
Knock-down reagent: siRNA pool against human genes, 40 nM
Time to read-out: 96 h from transfection to read-out
Challenge: vemurafenib 300 nM (about IC25), added 48 h after transfection, for 48 h; comparison arm got DMSO vehicle only
Measured: 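Cell gain (DAPI nuclei at end minus before drug, mean of two replicates) and medium lactate by absorbance per cell, both as ratio to non-targeting siRNA, also grouped into fold-change classes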
Reading the numbers: cell gain with vemurafenib: higher = more cell gain than with non-targeting siRNA; lactate per cell with vemurafenib: higher = more lactate made per cell
Rule for the call: 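Enhancement is called by pairing each knock-down's vehicle-arm and drug-arm fold-change classes for viability or glycolysis; which class combinations qualify is not given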
Calls: active = enhances vemurafenib effect; inactive = no enhancement seen
The deposit covers about 18,000 reagents; shown is a random part of them. 790 of them (4.4%) were called active. 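Calls rest on a combination of fold-change classes in drug and vehicle arms, not all shown here.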 Reagent sequences are not shown.

| Target gene | cell gain with vemurafenib | lactate per cell with vemurafenib | activity call |
| --- | --- | --- | --- |
| OPRD1 | 0.3 | 1.3 | inactive |
| PLEKHF1 | 0.46 | 0.79 | inactive |
| DNM1L | 0.3 | 0.88 | inactive |
| MRPL40 | 0.95 | 0.96 | inactive |
| COA5 | 0.54 | 1.26 | inactive |
| SLC4A3 | 0.34 | 0.94 | inactive |
| ACVR2A | 0.95 | 0.28 | inactive |
| ALPK3 | 0.1 | 1.98 | inactive |
| CBX6 | 1.01 | 0.8 | inactive |
| SRRD | 0.69 | 1.12 | inactive |
| GJA9 | 0.33 | 1.55 | inactive |
| ST6GALNAC5 | 0.4 | 1.64 | inactive |
| HLA-E | 0.93 | 0.76 | inactive |
| PDZRN4 | 1.07 | 0.74 | inactive |
| RAD54L2 | 0.55 | 0.55 | inactive |
| SWT1 | 0.61 | 0.3 | inactive |
| TRIM17 | 0.99 | 0.7 | inactive |
| SZRD1 | 0.37 | 1.27 | inactive |
| CCR8 | 0.41 | 1.52 | inactive |
| SYNE2 | 0.34 | 2.19 | inactive |
| OR6A2 | 0.38 | 1.11 | inactive |
| CLEC2B | 0.68 | 0.89 | inactive |
| TIAM1 | 0.75 | 0.76 | inactive |
| C2orf78 | 0.51 | 1.4 | inactive |
| PMF1 | 0.3 | 0.57 | inactive |
| THBD | 0.94 | 1 | inactive |
| UCN | 0.53 | 0.55 | inactive |
| KLK2 | 0.9 | 0.92 | inactive |
| MTPAP | 0.72 | 1.17 | inactive |
| PCDHGB4 | 0 | 0 | inactive |
| CTF1 | 0.19 | 2.06 | inactive |
| NDUFC1 | 0.39 | 0.88 | inactive |
| ADAT3 | 0.28 | 1.62 | inactive |
| ABHD12B | 0.48 | 0.4 | inactive |
| MACC1 | 0.53 | 0.36 | inactive |
| SPATA7 | 0.68 | 1.17 | inactive |
| OR12D3 | 0.9 | 0.33 | inactive |
| NKIRAS1 | 0.66 | 0.91 | inactive |
| LMAN2L | 0.85 | 1.21 | inactive |
| RARRES2 | 0.96 | 0.68 | inactive |
| FGD1 | 0.03 | 1.01 | inactive |
| DMWD | 1.15 | 0.7 | inactive |
| NPBWR2 | 0.23 | 1.12 | inactive |
| DCST1 | 0.72 | 0.56 | inactive |
| GPRIN2 | 0.88 | 1.08 | inactive |
| ACAP3 | 0.67 | 0.95 | inactive |
| FIBP | 0.92 | 0.94 | inactive |
| PIANP | 0.41 | 1.39 | inactive |
| RFPL1 | 0.86 | 0.8 | inactive |
| HDAC6 | 0.55 | 0.8 | inactive |
| NXPH1 | 0.15 | 1.83 | inactive |
| UROD | 0.89 | 0.64 | inactive |
| OR7E85BP | 0.27 | 0.82 | inactive |
| FAM227B | 0.92 | 0.8 | inactive |
| BDNF | 0.67 | 0.52 | inactive |
| VAV3 | 0.88 | 0.61 | inactive |

Reprinted from the entries so far for reference:
| Target gene | cell gain with vemurafenib | lactate per cell with vemurafenib | activity call |
| --- | --- | --- | --- |
| NKIRAS1 | 0.66 | 0.91 | inactive |
| LMAN2L | 0.85 | 1.21 | inactive |
| RARRES2 | 0.96 | 0.68 | inactive |
| FGD1 | 0.03 | 1.01 | inactive |
| DMWD | 1.15 | 0.7 | inactive |
| NPBWR2 | 0.23 | 1.12 | inactive |
| DCST1 | 0.72 | 0.56 | inactive |
| GPRIN2 | 0.88 | 1.08 | inactive |
| ACAP3 | 0.67 | 0.95 | inactive |
| FIBP | 0.92 | 0.94 | inactive |

The list goes on:
| Target gene | cell gain with vemurafenib | lactate per cell with vemurafenib | activity call |
| --- | --- | --- | --- |
| FDPS | 0.85 | 0.57 | inactive |
| GPR84 | 0.1 | 0.52 | inactive |
| ARMCX5 | 0.04 | 0.3 | active |
| WWP2 | 0.61 | 0.6 | inactive |
| MICAL1 | 1.19 | 1.06 | inactive |
| PCDHAC1 | 0.83 | 0.4 | inactive |
| GNA13 | 1.07 | 0.55 | inactive |
| PGAP2 | 0.31 | 1.42 | inactive |
| FGF6 | 0.42 | 1.54 | inactive |
| HGF | 1.09 | 0.55 | inactive |
| CCNB3 | 0.69 | 0.64 | inactive |
| TMC3 | 0.89 | 1.38 | inactive |
| ELMOD2 | 0.79 | 0.97 | inactive |
| PPP1R35 | 0.62 | 0.94 | inactive |
| MTIF2 | 0.92 | 1.38 | inactive |
| CACNA2D3 | 0.82 | 0.33 | inactive |
| ADI1 | 0.65 | 1.9 | inactive |
| TNFRSF13C | 0.81 | 0.7 | inactive |
| ITGAV | -0.31 | 2.67 | inactive |
| PLG | 0.59 | 0.8 | inactive |
| ZNF746 | 0.58 | 1.89 | inactive |
| AP2A2 | 0.11 | 0.24 | inactive |
| UBA2 | 0.29 | 1.12 | inactive |
| SARDH | 0.88 | 0.77 | inactive |
| RPS6KA1 | 0.31 | 1.11 | inactive |
| SRRT | 1.07 | 0.96 | inactive |
| KDM4A | 0.16 | 1.54 | inactive |
| YIPF7 | 0.66 | 0.91 | inactive |
| INIP | 0.62 | 1.42 | inactive |
| JPT2 | 0.61 | 0.92 | inactive |
| INHBB | 0.87 | 1.24 | inactive |
| LMBR1 | 0.34 | 1.46 | inactive |
| OR4F4 | 1.1 | 0.66 | inactive |
| KCTD10 | 0.3 | 1.42 | inactive |
| PTDSS1 | 0.85 | 1.01 | inactive |
| HSPA14 | 0.88 | 0.45 | inactive |
| SYCN | 0.48 | 0.46 | active |
| PPP1R3A | 0.76 | 0.52 | inactive |
| CDO1 | 0.87 | 1.08 | inactive |
| VDAC3 | 0.25 | 0.65 | inactive |
| GFER | 0.11 | 2.75 | inactive |
| STX12 | 0.28 | 0.55 | inactive |
| CDC20B | 0.9 | 1.73 | inactive |
| DNAJC14 | 0.82 | 0.77 | inactive |
| CIRSR | 0.15 | 0.36 | active |
| OR10H2 | 0.99 | 0.56 | inactive |
| NELFCD | 0.39 | 0.62 | inactive |
| OR7E24 | 1.16 | 0.7 | inactive |
| ACOT9 | 0.68 | 1.04 | inactive |
| AREG | 0.55 | 0.42 | active |
| ZNF10 | 0.91 | 0.82 | inactive |
